# Record: PubChem BioAssay AID652272 (Drosophila RNAi Screening Center, 2013)
# Screen: 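Genome-wide knock-down search for components of Hedgehog signalling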 (primary screen)
# System: Drosophila clone 8 (Cl8) cells
# Reagent: long dsRNA against Drosophila genes
# Measured: 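Firefly light from a Hedgehog-responsive ptc promoter reporter and Renilla reference light, both read on a plate reader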
# Reading the numbers: firefly Hh reporter signal: higher = more ptc reporter light; Renilla reference signal: higher = more Renilla control light
# Rule for the call: 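Hit when the z-score averaged over two replicates is under -2 or over +3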
# Meaning of the calls: active = hit: reporter lowered or raised; inactive = not a hit
# The deposit covers about 21,000 reagents; this is a random part of those with a known target gene and a result. Over the whole deposit, 503 (2.4%) are marked active. 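Raw plate light values, not normalised; calls rest on replicate z-scores that were not deposited; hits include reporter decreases as well as increases.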 Names joined by + are all predicted targets of the reagent. Not stated in the record: the amount of reagent, the time to read-out.
target,DRSC id,"firefly Hh reporter signal, replicate 1","firefly Hh reporter signal, replicate 2","firefly Hh reporter signal, replicate 3","Renilla reference signal, replicate 1","Renilla reference signal, replicate 2",Outcome
HmgD (High mobility group protein D),DRSC04619,1.36e5,84853,,5659,3764,inactive
Hsl (Hormone-sensitive lipase),DRSC06028,1.26e5,64256,,5024,2737,inactive
"Alg12 (Alg12 alpha-1,6-mannosyltransferase)",DRSC16416,59842,1.41e5,,1593,3489,inactive
PIG-H (Phosphatidylinositol glycan anchor biosynthesis class H),DRSC14856,1.06e5,1.60e5,,3680,15272,inactive
CG3225,DRSC00578,99052,85555,,4263,3376,inactive
Rbp (RIM-binding protein),DRSC15724,34481,28517,,1287,978,inactive
Rbp (RIM-binding protein),DRSC15726,97552,1.07e5,,3520,2900,inactive
larp (La related protein),DRSC14728,1.75e5,1.44e5,,5324,4018,inactive
larp (La related protein),DRSC16984,1.25e5,1.29e5,,3904,3364,inactive
CG32603,DRSC19409,1.20e5,3.21e5,,2044,14216,inactive
CG7329,DRSC03046,1.31e5,50967,,3634,4664,inactive
CG42366,DRSC02760,60144,23290,,1828,3101,inactive
Sec15 (Secretory 15),DRSC16179,6.58e5,1.44e5,,43008,677,inactive
Teh3 (tipE homolog 3),DRSC08537,83933,41740,,2763,2912,inactive
Mlh1,DRSC07473,76484,77340,,3340,3090,inactive
MED27 (Mediator complex subunit 27),DRSC12205,66755,1.12e5,,1952,2885,inactive
CG2577,DRSC19863,34256,1.38e5,,964,6790,inactive
CG17195,DRSC15188,5.49e5,1.04e5,,26875,3058,inactive
nuf (nuclear fallout),DRSC11379,74164,,,3955,2224,inactive
Ubr1 (Ubr1 ubiquitin ligase),DRSC20148,71089,91244,,2042,2805,inactive
CG3430,DRSC02713,58882,58538,,3180,2448,inactive
CG12502,DRSC08281,62595,45667,,2027,3600,inactive
wg (wingless),DRSC03636,1.42e5,61397,,3673,6209,inactive
lncRNA:CR40629 (long non-coding RNA:CR40629),DRSC20959,6.02e5,2.03e5,,28865,3464,inactive
CG30377,DRSC06477,36300,34613,,1792,1762,inactive
CG30377,DRSC06799,60160,26459,,1805,2672,inactive
wge (winged eye),DRSC15246,1.34e5,1.04e5,,6985,5351,inactive
wge (winged eye),DRSC15672,5.37e5,81370,,29656,2891,inactive

A portion taken from the entries so far, for reference:
target,DRSC id,"firefly Hh reporter signal, replicate 1","firefly Hh reporter signal, replicate 2","firefly Hh reporter signal, replicate 3","Renilla reference signal, replicate 1","Renilla reference signal, replicate 2",Outcome
CG42366,DRSC02760,60144,23290,,1828,3101,inactive
Sec15 (Secretory 15),DRSC16179,6.58e5,1.44e5,,43008,677,inactive
Teh3 (tipE homolog 3),DRSC08537,83933,41740,,2763,2912,inactive
Mlh1,DRSC07473,76484,77340,,3340,3090,inactive
MED27 (Mediator complex subunit 27),DRSC12205,66755,1.12e5,,1952,2885,inactive
CG2577,DRSC19863,34256,1.38e5,,964,6790,inactive

The list goes on:
target,DRSC id,"firefly Hh reporter signal, replicate 1","firefly Hh reporter signal, replicate 2","firefly Hh reporter signal, replicate 3","Renilla reference signal, replicate 1","Renilla reference signal, replicate 2",Outcome
shv (shriveled),DRSC00640,1.28e5,1.21e5,,2896,2690,inactive
Fatp (retired record),DRSC03054,64277,81730,,3484,3196,inactive
Ac13E (Adenylyl cyclase 13E),DRSC19325,88994,1.80e5,,1655,7596,inactive
Gk2 (Glycerol kinase 2),DRSC08610,1.12e5,97687,,5265,3768,inactive
CG6569,DRSC16067,7.67e5,1.55e5,,33680,1978,inactive
CG13693,DRSC00362,1.75e5,1.17e5,,3909,3329,inactive
CG13766,DRSC02271,87381,35121,,1641,3949,inactive
dmt (dalmatian),DRSC16932,63527,1.21e5,,2312,3548,inactive
CG14331,DRSC14810,66096,71762,,1545,1832,inactive
CG4783,DRSC15644,4.86e5,98160,,4242,4242,inactive
mRpS30 (mitochondrial ribosomal protein S30),DRSC20107,91203,55145,,2176,1378,inactive
"SdhA (Succinate dehydrogenase, subunit A (flavoprotein))",DRSC07547,68267,40675,,3585,1952,inactive
CG7017,DRSC10762,1.14e5,1.11e5,,3809,3291,inactive
mRpL19 (mitochondrial ribosomal protein L19),DRSC16367,1.10e5,7.17e5,1.84e5,4550,5237,inactive
Ass + CG31286,DRSC12493,67812,82928,,2640,2454,inactive
CG6094,DRSC02927,1.23e5,1.79e5,,5280,6310,inactive
Cpr64Ab (Cuticular protein 64Ab),DRSC08461,76099,52418,,2490,3840,inactive
CG32801,DRSC17964,1.07e5,2.44e5,,4710,8755,inactive
CG4714,DRSC06883,78048,66641,,3148,2288,inactive
CG17931 + CG42446,DRSC15293,1.08e5,1.22e5,,1907,3237,inactive
Cdk12 (Cyclin-dependent kinase 12),DRSC11836,79147,99056,,2912,3748,inactive
CG5359,DRSC15780,67458,86710,,2209,2180,inactive
l(1)G0004 (lethal (1) G0004),DRSC20486,85383,89952,,2624,2560,inactive
IntS8 (Integrator 8),DRSC07417,1.22e5,87200,,4920,3434,inactive
CG6865,DRSC10732,1.19e5,,,2981,2317,inactive
Hip1 (Huntingtin interacting protein 1),DRSC09812,1.14e5,1.04e5,,4354,4072,inactive
CG9902,DRSC20212,84075,2.07e5,,3058,8024,inactive
Ent3 (Equilibrative nucleoside transporter 3),DRSC09822,1.01e5,46162,,4082,1408,inactive
CG18518,DRSC01509,82416,1.74e5,,2321,8192,inactive
